In PMC7949054:
No constants are given. Whether binding was seen depends on the method and setting. Binding seen in cells or lysates may run through a third protein. A result given as binding can be weak or reduced; the word gives no strength. Where a sequence is shown, tags or fusion partners need not be part of it.

Target: T1, GFP-tagged CLASP2 (UniProt O75122)
T1 sequence: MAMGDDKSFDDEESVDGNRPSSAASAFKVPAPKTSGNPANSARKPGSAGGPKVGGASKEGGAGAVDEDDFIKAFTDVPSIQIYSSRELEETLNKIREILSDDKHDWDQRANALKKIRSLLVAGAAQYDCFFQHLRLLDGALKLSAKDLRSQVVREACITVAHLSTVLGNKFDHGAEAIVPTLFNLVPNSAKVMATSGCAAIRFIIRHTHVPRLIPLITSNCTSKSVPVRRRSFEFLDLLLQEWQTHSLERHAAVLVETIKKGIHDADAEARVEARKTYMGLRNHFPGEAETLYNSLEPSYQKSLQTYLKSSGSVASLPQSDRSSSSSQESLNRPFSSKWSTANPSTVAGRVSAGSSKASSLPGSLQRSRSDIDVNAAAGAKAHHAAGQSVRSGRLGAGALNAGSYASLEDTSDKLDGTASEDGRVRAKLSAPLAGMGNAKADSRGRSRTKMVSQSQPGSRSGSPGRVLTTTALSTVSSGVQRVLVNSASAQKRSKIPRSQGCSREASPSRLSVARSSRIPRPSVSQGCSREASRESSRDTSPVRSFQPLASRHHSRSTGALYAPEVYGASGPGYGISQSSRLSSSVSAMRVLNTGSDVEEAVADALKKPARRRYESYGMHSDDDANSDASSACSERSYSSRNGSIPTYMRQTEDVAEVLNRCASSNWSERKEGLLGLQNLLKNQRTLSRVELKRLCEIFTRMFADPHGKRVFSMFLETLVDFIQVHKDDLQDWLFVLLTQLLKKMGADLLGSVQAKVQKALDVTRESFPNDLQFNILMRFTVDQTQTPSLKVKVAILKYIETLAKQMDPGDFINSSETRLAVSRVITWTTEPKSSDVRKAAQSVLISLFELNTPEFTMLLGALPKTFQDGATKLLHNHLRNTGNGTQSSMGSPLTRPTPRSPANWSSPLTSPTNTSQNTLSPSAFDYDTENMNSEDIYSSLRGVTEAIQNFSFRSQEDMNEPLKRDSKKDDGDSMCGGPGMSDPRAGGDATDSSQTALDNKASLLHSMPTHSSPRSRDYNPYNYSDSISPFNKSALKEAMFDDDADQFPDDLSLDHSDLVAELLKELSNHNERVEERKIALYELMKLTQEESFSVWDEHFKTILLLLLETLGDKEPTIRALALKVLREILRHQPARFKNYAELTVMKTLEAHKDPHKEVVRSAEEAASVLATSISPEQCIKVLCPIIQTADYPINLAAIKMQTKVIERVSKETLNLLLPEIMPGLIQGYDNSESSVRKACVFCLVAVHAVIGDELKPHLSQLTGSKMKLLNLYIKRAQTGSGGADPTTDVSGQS
Experiment: co-IP; lysates of HPAEC cotransfected with a GFP-tagged protein and Myc-SOCS3 or its deletion mutants (TBS-NP40); precipitated with GFP antibody, blot for Myc; in Fig. 4F also after HKSA or colchicine

binding	Substance
binds	Myc-tagged C-terminal SOCS3 deletion mutant (ΔC47) lacking SOCS box (domain or fragment)
no binding	Myc-tagged SOCS3 ΔN20 (deletion of the first 20 amino acids) (domain or fragment)
no binding	Myc-tagged SOCS3 ΔN36 (deletion of the first 36 amino acids) (domain or fragment)
